Results are given in words; binding and its absence hold for the method and conditions named. In cells and extracts the contact can be indirect. Some entries that bind do so weakly or less than the wild type. For some of these results: Sequences can lack the tags named with a protein.
Tests used:
Experiment in all cases: pull-down; GST-pulldown on glutathione agarose (16 h, 4 °C, beads blocked with 1% BSA) from lysates of HEK293T cells co-transfected with FLAG-PRMT5 and GST-tagged bait; immunoblot; also with Nec-1 treatment of the cells
[1] = target: T1, GST-tagged full-length mRIPK1 (1-656 aa) (mouse) (UniProt Q60855)
T1 sequence: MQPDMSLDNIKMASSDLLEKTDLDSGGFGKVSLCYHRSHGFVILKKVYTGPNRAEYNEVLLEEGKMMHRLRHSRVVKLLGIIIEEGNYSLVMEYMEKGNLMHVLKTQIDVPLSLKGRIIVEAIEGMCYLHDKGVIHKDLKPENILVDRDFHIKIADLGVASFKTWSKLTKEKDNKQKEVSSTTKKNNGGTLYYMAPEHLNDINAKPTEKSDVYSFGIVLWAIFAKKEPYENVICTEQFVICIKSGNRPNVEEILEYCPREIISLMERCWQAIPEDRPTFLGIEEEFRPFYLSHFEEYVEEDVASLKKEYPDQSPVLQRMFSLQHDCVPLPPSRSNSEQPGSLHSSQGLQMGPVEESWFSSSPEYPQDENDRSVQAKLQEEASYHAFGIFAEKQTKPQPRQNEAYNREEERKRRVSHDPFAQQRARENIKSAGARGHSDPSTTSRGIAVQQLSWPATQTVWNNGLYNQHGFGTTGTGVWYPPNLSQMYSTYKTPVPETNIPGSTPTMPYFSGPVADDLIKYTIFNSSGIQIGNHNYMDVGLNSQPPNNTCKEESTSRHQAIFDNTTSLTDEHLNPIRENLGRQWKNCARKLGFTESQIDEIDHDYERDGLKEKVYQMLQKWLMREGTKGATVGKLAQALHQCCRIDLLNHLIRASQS

By UniProt entry, the sequences of proteins in these tests, tags left out.
UniProt Q9QZL0: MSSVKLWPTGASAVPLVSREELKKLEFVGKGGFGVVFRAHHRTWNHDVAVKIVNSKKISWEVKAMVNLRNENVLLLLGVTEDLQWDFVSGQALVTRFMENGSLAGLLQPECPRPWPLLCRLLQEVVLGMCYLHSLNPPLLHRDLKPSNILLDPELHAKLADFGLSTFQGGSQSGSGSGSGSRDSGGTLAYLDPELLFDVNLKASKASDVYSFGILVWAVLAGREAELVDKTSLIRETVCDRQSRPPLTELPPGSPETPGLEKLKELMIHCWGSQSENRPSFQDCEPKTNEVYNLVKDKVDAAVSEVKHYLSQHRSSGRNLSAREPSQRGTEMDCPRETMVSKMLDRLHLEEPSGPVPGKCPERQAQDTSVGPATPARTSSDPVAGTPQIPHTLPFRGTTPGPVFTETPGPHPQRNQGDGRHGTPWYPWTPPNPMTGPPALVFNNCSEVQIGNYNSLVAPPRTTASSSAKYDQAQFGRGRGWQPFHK
UniProt O14744: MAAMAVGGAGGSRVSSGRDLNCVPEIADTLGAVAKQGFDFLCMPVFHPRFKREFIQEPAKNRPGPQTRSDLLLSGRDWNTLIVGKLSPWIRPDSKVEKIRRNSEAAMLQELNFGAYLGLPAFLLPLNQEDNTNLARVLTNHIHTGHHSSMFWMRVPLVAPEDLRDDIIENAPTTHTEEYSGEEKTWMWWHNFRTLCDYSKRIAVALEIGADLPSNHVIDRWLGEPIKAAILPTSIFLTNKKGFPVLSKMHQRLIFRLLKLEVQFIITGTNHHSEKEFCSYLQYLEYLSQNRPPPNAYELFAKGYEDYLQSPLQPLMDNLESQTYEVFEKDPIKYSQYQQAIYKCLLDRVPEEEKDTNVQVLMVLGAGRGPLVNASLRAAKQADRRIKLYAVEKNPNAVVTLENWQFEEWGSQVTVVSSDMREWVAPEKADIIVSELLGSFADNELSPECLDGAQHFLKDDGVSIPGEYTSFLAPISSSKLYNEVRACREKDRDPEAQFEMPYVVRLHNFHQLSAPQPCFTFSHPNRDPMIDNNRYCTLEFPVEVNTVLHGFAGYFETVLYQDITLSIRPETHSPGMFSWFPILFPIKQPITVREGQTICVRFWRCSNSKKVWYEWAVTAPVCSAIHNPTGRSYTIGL

[2] = target: T2, GST-tagged mRIPK1 lacking both death domain and RHIM motif (∆DD/∆RHIM, mRIPK1-1-500 aa) (mouse) (UniProt Q60855)
T2 sequence: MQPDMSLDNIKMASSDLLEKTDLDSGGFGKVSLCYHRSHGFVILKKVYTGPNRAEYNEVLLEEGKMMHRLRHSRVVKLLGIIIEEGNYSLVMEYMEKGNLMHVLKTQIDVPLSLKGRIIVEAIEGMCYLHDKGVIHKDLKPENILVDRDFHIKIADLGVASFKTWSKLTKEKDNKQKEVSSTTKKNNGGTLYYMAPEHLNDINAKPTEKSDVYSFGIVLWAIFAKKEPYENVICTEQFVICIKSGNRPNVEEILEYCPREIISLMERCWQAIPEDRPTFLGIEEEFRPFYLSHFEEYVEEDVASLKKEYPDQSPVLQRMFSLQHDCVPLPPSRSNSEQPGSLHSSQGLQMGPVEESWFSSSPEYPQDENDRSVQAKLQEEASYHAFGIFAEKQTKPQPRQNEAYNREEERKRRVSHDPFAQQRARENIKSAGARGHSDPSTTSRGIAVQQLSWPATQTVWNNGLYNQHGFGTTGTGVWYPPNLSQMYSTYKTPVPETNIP

[3] = target: T3, GST-tagged mRIPK1 lacking the death domain (∆DD, mRIPK1-1-588 aa) (mouse) (UniProt Q60855)
T3 sequence: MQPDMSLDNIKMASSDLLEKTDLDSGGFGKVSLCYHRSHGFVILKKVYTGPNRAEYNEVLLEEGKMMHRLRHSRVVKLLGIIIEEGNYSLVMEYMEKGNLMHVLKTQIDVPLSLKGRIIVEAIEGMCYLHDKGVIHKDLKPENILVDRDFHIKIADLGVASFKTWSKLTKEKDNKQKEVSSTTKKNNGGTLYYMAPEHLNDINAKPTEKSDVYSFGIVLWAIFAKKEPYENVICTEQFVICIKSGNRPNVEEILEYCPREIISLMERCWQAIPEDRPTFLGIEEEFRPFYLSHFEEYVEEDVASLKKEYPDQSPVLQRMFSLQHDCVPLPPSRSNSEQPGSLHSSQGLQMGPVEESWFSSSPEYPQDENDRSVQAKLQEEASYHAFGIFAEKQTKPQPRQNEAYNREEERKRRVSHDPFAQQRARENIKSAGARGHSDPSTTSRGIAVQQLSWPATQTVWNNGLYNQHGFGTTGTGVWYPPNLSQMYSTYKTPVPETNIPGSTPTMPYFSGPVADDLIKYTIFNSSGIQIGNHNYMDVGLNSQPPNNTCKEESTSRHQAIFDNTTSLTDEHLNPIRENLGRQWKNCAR

[4] = target: GST-tagged mouse RIPK3 (mouse) (UniProt Q9QZL0)

Measured: binding

3xFLAG-PRMT5 (from UniProt O14744 1-637)
binds: all assays above

Source: publication PMC9852244
